PubChem BioAssay AID652272 – Drosophila RNAi Screening Center – 2013
Aim: 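Genes whose knock-down decreases or increases Hedgehog reporter output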 (primary screen). Cells: Drosophila clone 8 (Cl8) cells. Reagents: long dsRNA against Drosophila genes. Read-out: 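Firefly light from a Hedgehog-responsive ptc promoter reporter and Renilla reference light, both read on a plate reader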. Reading the numbers: firefly Hh reporter signal: higher = more ptc reporter light; Renilla reference signal: higher = more Renilla control light. Active means: 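Hit when the z-score averaged over two replicates is under -2 or over +3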. Calls: active = hit: reporter lowered or raised; inactive = not a hit.
The deposit covers about 21,000 reagents; shown is an unselected part of those with a known target gene and a result. Of all reagents, 503 (2.4%) got an active call. 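Raw plate light values, not normalised; calls rest on replicate z-scores that were not deposited; hits include reporter decreases as well as increases.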 The numbers tell different reagents against one gene apart. Not stated in the record: the amount of reagent, the time to read-out.

| gene | dsRNA no. | firefly Hh reporter signal, replicate 1 | firefly Hh reporter signal, replicate 2 | firefly Hh reporter signal, replicate 3 | Renilla reference signal, replicate 1 | Renilla reference signal, replicate 2 | call |
| --- | --- | --- | --- | --- | --- | --- | --- |
| CG31454 | 1 | 1.11e5 | 2.28e5 | – | 4573 | 6290 | inactive |
| CG10804 | 1 | 1.74e5 | 1.10e5 | – | 3810 | 4154 | inactive |
| CG31463 | 1 | 62728 | 94434 | – | 2880 | 2572 | inactive |
| CG3342 | 1 | 91445 | 72288 | – | 2208 | 1688 | inactive |
| ppk30 (pickpocket 30) | 1 | 75820 | 81386 | – | 2688 | 2096 | inactive |
| CG1750 | 1 | 63437 | 63997 | – | 1303 | 1872 | inactive |
| CG17490 | 1 | 1.54e5 | 1.90e5 | – | 4432 | 9160 | inactive |
| CG17490 | 2 | 76436 | 60131 | – | 2491 | 5606 | inactive |
| Ekar (Eye-enriched kainate receptor) | 1 | 67460 | 1.99e5 | – | 2387 | 7620 | inactive |
| tim (timeless) | 1 | 84538 | 60408 | – | 4108 | 2720 | inactive |
| SelG (Selenoprotein G) | 1 | 1.68e5 | 95301 | – | 3783 | 2240 | inactive |
| Nmt (N-myristoyl transferase) | 1 | 50804 | 71321 | – | 2032 | 5496 | inactive |
| Fancl | 1 | 1.16e5 | 1.08e5 | – | 2800 | 3251 | inactive |
| mRpS34 (mitochondrial ribosomal protein S34) | 1 | 1.45e5 | – | – | 4835 | 3776 | inactive |
| CG32686 | 1 | 4.75e5 | 1.72e5 | – | 28560 | 4402 | inactive |
| mthl14 (methuselah-like 14) | 1 | 1.21e5 | 1.74e5 | – | 3405 | 6918 | inactive |
| TrpRS-m (Tryptophanyl-tRNA synthetase, mitochondrial) | 1 | 69008 | 68272 | – | 3126 | 3336 | inactive |
| Kr (Kruppel) | 1 | 66392 | 47568 | – | 1382 | 4243 | inactive |
| Or74a (Odorant receptor 74a) | 1 | 1.31e5 | – | – | 2145 | 3687 | inactive |
| CG14321 | 1 | 5.92e5 | 98296 | – | 27944 | 2773 | inactive |
| CG14088 | 1 | 1.03e5 | 96772 | – | 3783 | 2583 | inactive |
| CG42254 (retired record) | 1 | 51172 | 54304 | – | 996 | 3472 | inactive |
| Ptp99A (Protein tyrosine phosphatase 99A) | 1 | 2129 | 6.38e5 | 2.79e5 | 705 | 4520 | inactive |
| Ptp99A (Protein tyrosine phosphatase 99A) | 2 | 55536 | 3.13e5 | – | 13962 | 7495 | inactive |
| Ptp99A (Protein tyrosine phosphatase 99A) | 3 | 69298 | 90999 | – | 2230 | 2640 | inactive |
| Ptp99A (Protein tyrosine phosphatase 99A) | 4 | 1.01e5 | 90274 | – | 2475 | 2133 | inactive |
| Ptp99A (Protein tyrosine phosphatase 99A) | 5 | 1.02e5 | 1.15e5 | – | 2589 | 2370 | inactive |
